Experimental data as given in PubChem BioAssay AID540275 (National Center for Advancing Translational Sciences (NCATS), 2011).
Out of some 320,000 compounds screened, about 620 (0.19%) were called active. The inconclusive results got no clear call from the source; some entries with a clear call stand among them for comparison. No stated cut-off is given here; in the data, active means activation above about 80%; inconclusive means between about 30% and that limit; inactive means weaker than that.

Amino acid sequences for entries named in this document (tags omitted).
UniProt Q8NER1, whole entry, looked up: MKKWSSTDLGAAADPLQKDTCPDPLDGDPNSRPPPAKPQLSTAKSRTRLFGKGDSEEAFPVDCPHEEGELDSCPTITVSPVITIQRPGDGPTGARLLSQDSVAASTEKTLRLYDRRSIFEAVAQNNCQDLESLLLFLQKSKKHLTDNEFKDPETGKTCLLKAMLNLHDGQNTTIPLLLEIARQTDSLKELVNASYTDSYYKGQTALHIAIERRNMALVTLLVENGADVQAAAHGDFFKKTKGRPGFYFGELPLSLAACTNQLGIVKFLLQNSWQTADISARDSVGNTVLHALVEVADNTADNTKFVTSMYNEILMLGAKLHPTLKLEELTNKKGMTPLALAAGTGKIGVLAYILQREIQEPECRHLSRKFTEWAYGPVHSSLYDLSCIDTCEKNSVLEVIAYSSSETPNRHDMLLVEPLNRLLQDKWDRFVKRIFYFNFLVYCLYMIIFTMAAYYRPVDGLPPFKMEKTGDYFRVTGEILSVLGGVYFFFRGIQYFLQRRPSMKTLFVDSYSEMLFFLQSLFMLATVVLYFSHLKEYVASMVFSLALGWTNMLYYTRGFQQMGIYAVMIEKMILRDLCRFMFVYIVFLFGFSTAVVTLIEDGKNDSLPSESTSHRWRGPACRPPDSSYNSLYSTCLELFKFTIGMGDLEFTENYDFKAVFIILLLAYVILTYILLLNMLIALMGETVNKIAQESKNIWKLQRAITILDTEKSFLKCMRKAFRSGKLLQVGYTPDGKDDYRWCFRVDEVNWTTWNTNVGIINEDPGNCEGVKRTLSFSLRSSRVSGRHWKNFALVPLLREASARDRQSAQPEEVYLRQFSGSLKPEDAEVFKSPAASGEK

Target: Transient receptor potential cation channel subfamily V member 1 (Homo sapiens) (UniProt Q8NER1)
Assay: HTS Assay for Compounds that Act as Agonists of the Vanilloid Receptor 1; further: 0% is about no effect
Details: TRPV1-expressing cells, Fluo-8 calcium influx, agonist mode; at 8.33 µM, active compounds read high
In short: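 Cells expressing TRPV1 were dye-loaded with Fluo-8 and read kinetically: 10 s baseline, 3 min after compound (agonist portion), then 2 min after EC20 capsaicin (allosteric enhancer portion). Calcium-bound dye fluorescence at 480/520 nm.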

How did the activation turn out when Cc1onc(-c2c(F)cccc2Cl)c1C(=O)N1CCc2ccccc21 was run?
Its activation is inconclusive: 42%.

How did the activation turn out when CCOc1ccc(N(CC(=O)NCCOc2ccc(C)cc2)S(=O)(=O)c2ccccc2)cc1 was run?
The activation was inactive: 22.9%.

With CC(CC(=O)Nc1ccc(S(=O)(=O)N2CCOCC2)cc1)c1ccccc1 (stereo not drawn) as the compound, how does the activation read?
The activation was inconclusive: 32%.

How did the activation turn out when COC(Cc1n[nH]c(=S)n1-c1ccc(Cl)cc1)OC was run?
Its activation is inactive: -2%.

For CC(C)(C)C(=O)Cn1c(=N)n(Cc2ccccc2)c2ccccc21, which activation is on record?
The activation was inactive: 15.7%.

For C=Cc1ccc(Cn2c(C(=O)O)c(CNCc3ccccc3)c3ccc(C)cc32)cc1, which activation is on record?
Its activation is inconclusive: 53.2%.

Which activation does the source give for Cc1ccc(C)c(NC(=O)c2ccccc2C(=O)c2ccccc2)c1 here?
The activation was inconclusive: 32.5%.

For Cc1ccc2nc(SC(C)C(=O)NC3CCCc4ccccc43)[nH]c2c1 (stereo not drawn), which activation is on record?
Its activation is inconclusive: 57.2%.

CCOC(=O)Cc1csc(NC(=O)c2ccc(C)cc2)n1 was tested. Which activation did it give?
The activation was inconclusive: 39.7%.

For Cc1ccc(NC2Sc3ccccc3NC2=O)cc1 (stereo not drawn), which activation is on record?
The activation was inconclusive: 43%.

Which activation does the source give for Cc1cc(C)c(C(=O)N2CCCC(Nc3ccc(F)cc3)C2)o1 (stereo not drawn) here?
Its activation is active: 83%.

With CCCCCC(=O)NC(=S)Nc1ccc(Cl)cn1 as the compound, how does the activation read?
Its activation is inactive: -2.23%.

With O=C(CSc1nc2ccc(Cl)cc2[nH]1)NCc1ccco1 as the compound, how does the activation read?
The activation was inconclusive: 34.2%.

For Cc1ccc(-n2ncc3c2CCCC3NC(=O)c2csnn2)cc1C (stereo not drawn), which activation is on record?
The activation was inconclusive: 42.5%.

How did the activation turn out when CC(=O)c1ccc(NC(=S)N2CCN(S(=O)(=O)c3ccc(F)cc3)CC2)cc1 was run?
The activation was inconclusive: 43.2%.

For Cc1cc(C)nc(-n2ncc3c2CC(c2ccc(C(C)C)cc2)CC3=O)n1 (stereo not drawn), which activation is on record?
Its activation is inconclusive: 57.6%.

Which activation does the source give for O=C(Nc1cccc(NC(=O)c2sc3ccccc3c2Cl)c1)c1ccco1 here?
The activation was inconclusive: 56.6%.

How did the activation turn out when Cn1nnc(NCc2cc(Br)ccc2OCc2ccccc2F)n1 was run?
Its activation is inconclusive: 36.1%.

For CN(C)CCCNC(=O)/C=C/c1ccc2c(c1)OCO2, which activation is on record?
Its activation is inactive: -7.96%.

CCOC(=O)C1(CCOc2ccccc2)CCN(Cc2cccc(-n3cccn3)c2)CC1 was tested. Which activation did it give?
Its activation is inactive: 3.33%.

CN(CC(=O)NC1CCCCCC1)S(=O)(=O)c1ccc(Br)cc1 was tested. Which activation did it give?
Its activation is inconclusive: 37.5%.

For COC(=O)c1sccc1NC(=O)NC1CCCCC1, which activation is on record?
The activation was inconclusive: 44%.

How did the activation turn out when CCc1ccc(NC(=O)CSc2ccccn2)cc1 was run?
Its activation is inconclusive: 55%.

For CCOc1ccc(-c2c(C(=O)N/N=C/c3ccncc3)nnn2-c2nonc2N)cc1, which activation is on record?
The activation was inconclusive: 39.5%.

With CCCn1c(-c2cccs2)nc2ccccc21 as the compound, how does the activation read?
The activation was inactive: -3.64%.

Which activation does the source give for Cc1ccc(/C=N/NC(=O)C2COc3ccccc3O2)s1 (stereo not drawn) here?
Its activation is inconclusive: 37.1%.

For COc1ccc(Cn2c(=S)[nH]c3ccccc3c2=O)cc1, which activation is on record?
Its activation is inconclusive: 33.9%.

Which activation does the source give for C=CCOc1cccc(C(=O)N2CCCC(Nc3ccc4c(c3)OCCO4)C2)c1 (stereo not drawn) here?
The activation was inconclusive: 44.5%.

How did the activation turn out when CN(C)S(=O)(=O)c1ccc(C(=O)Nc2ccc3c(c2)CCC3)cc1 was run?
Its activation is inconclusive: 74.6%.

How did the activation turn out when COCCN(C(=O)Cc1cccs1)C(C(=O)NCc1ccc(OC)cc1)c1ccc(C(C)C)cc1 (stereo not drawn) was run?
The activation was inconclusive: 41.5%.

How did the activation turn out when CC(C)NC(=O)c1c(CSc2ccccc2)noc1C(=O)NCc1ccccc1 was run?
Its activation is inconclusive: 30.6%.

With CCN(c1cccc(C)c1)S(=O)(=O)c1cn(CC(=O)OC)c2ccc([N+](=O)[O-])cc12 as the compound, how does the activation read?
Its activation is inconclusive: 37.8%.

Which activation does the source give for CN1CCC(=O)N([C@H](CSc2ccccc2)c2ccccc2)CC1 here?
Its activation is inactive: 2.56%.

For Cn1cc(C(=O)c2ccc(Cl)cc2Cl)cc1C(=O)N/N=C(\N)COc1ccc(Cl)cc1, which activation is on record?
Its activation is inactive: -0.492%.

For O=C(COC(=O)c1cc(Br)ccc1O)NNC(=O)c1cccs1, which activation is on record?
Its activation is inactive: 0.652%.

How did the activation turn out when O=C(N/N=C/C1C(c2ccccc2)C1(Cl)Cl)c1cccc(Br)c1 (stereo not drawn) was run?
Its activation is inactive: 13.3%.

For CCOC(=O)Cn1c(=O)oc2cc(S(=O)(=O)N(C)c3ccc(OC)cc3)ccc21, which activation is on record?
The activation was inconclusive: 30.7%.

COc1ccc(S(=O)(=O)NNC(=O)c2cccs2)cc1 was tested. Which activation did it give?
Its activation is inactive: -5.55%.

Which activation does the source give for CCCCCCCC1CC(=O)C=C(C)C1C(=O)OCC (stereo not drawn) here?
Its activation is inconclusive: 40.6%.

How did the activation turn out when CC(=O)C1=C(O)C(=O)N(c2cc(C(C)(C)C)on2)C1c1ccc(Br)cc1 (stereo not drawn) was run?
The activation was inactive: 0.297%.

For COC(=O)c1cc(NC(=O)Cc2cccs2)cc(C(=O)OC)c1, which activation is on record?
The activation was inconclusive: 39.7%.

How did the activation turn out when O=C(/C=C/c1ccccc1Cl)NC1CCCCC1 was run?
Its activation is inconclusive: 30.3%.

For CSc1nnc(C(C)(C)C)c(=O)n1/N=C/c1ccccc1O, which activation is on record?
The activation was inconclusive: 52.9%.

CC(NC(=O)COC(=O)c1ccccc1Nc1ccccc1)c1ccccc1 (stereo not drawn) was tested. Which activation did it give?
Its activation is inconclusive: 36.8%.

With COc1ccc(CNC(=O)CN(c2ccc(OC)cc2)S(=O)(=O)c2c(C)[nH]c(=O)[nH]c2=O)cc1 as the compound, how does the activation read?
The activation was inactive: 0.71%.

Which activation does the source give for CC1CN(C(=S)NC(=O)c2ccccc2)CC(C)O1 (stereo not drawn) here?
The activation was inactive: 1.27%.

How did the activation turn out when CC1(C)Cc2c(C#N)c(N)n(-c3ccccc3)c(=S)c2CO1 was run?
The activation was inactive: 2.99%.

Which activation does the source give for Cc1ccc(NC(=O)c2onc(C)c2Cl)cc1 here?
The activation was inconclusive: 69.7%.

How did the activation turn out when CCOC(=O)c1c(NC(=O)C(C)N2CCN(C(=O)c3ccco3)CC2)sc2c1CCCC2 (stereo not drawn) was run?
The activation was inconclusive: 31.4%.

Which activation does the source give for O=C(Cc1cccc2ccccc12)NC(NC(=S)Nc1ccccc1Cl)C(Cl)(Cl)Cl (stereo not drawn) here?
The activation was inactive: 5.41%.

With O=C(CN1CCOCC1)Nc1ccc(C2CCCCC2)cc1 as the compound, how does the activation read?
The activation was inconclusive: 43.2%.

With CC1(C)C2CCC1(CS(=O)(=O)N1CCCc3ccccc31)C(=O)C2 (stereo not drawn) as the compound, how does the activation read?
The activation was inconclusive: 74.9%.

For CN(C)c1ccc(-c2nnn(Cc3ccccc3Br)n2)cc1, which activation is on record?
The activation was inactive: 14.6%.

Cc1ccc(NC(=O)CNC(=O)CC23CC4CC(CC(C4)C2)C3)c(O)c1 was tested. Which activation did it give?
The activation was inconclusive: 36.2%.

For CCC(=O)Nc1cccc(-c2nc3ccccc3o2)c1, which activation is on record?
Its activation is inconclusive: 36.9%.

With CCNC(=O)CN1C(=O)NC2(CCOc3ccccc32)C1=O (stereo not drawn) as the compound, how does the activation read?
The activation was inactive: 1.11%.

With Cc1ccc(C)c(NC(=O)c2cc3ccccn3n2)c1 as the compound, how does the activation read?
Its activation is inconclusive: 32.9%.

For COc1ccc(S(=O)(=O)N2CCCCCC2)cc1C(=O)NCCc1ccccc1, which activation is on record?
Its activation is inconclusive: 30.8%.

COC(=O)c1nn(-c2cccc(C(F)(F)F)c2)c(=O)cc1Sc1ccccn1 was tested. Which activation did it give?
The activation was inconclusive: 52.2%.

Which activation does the source give for Cc1sc2nc(-c3ccccn3)[nH]c(=O)c2c1-c1ccccc1 here?
Its activation is inconclusive: 37.9%.

How did the activation turn out when O=C(Nc1ccccc1F)c1ccc(CSc2ccccc2)o1 was run?
Its activation is inconclusive: 37%.

Cc1ccc(OCC(=O)N/N=C\c2cccs2)c([N+](=O)[O-])c1 was tested. Which activation did it give?
The activation was inactive: -4.84%.

O=C(N/N=C/c1ccc[nH]1)c1sc2ccccc2c1Cl was tested. Which activation did it give?
Its activation is inconclusive: 42.9%.

With Cc1ccc(C(=O)n2nc(-n3cccc3)c3c(C)cc(C)nc32)cc1 as the compound, how does the activation read?
Its activation is inconclusive: 35.6%.

COc1cccc(COC(=O)Nc2ccccc2F)c1 was tested. Which activation did it give?
The activation was inconclusive: 35.5%.

Which activation does the source give for CCCCNC(=O)Cn1cnc2ccc(S(=O)(=O)N3CCC(C)CC3)cc2c1=O here?
Its activation is inactive: 0.187%.

With COc1ccc(N2CC(O)(c3ccc(OC(F)F)cc3)[N+]3=C2CCCC3)cc1 (stereo not drawn) as the compound, how does the activation read?
The activation was inactive: 0.304%.

CCOc1ccc(N2C(=O)C3CCCN3C2=O)cc1 (stereo not drawn) was tested. Which activation did it give?
Its activation is inactive: 0.425%.

For Cc1nc2c(-c3ccccc3)c(C)nn2c(C)c1CCC(=O)NCc1ccco1, which activation is on record?
Its activation is inconclusive: 74.9%.

With CCn1nnc(-c2ccccc2NC(=O)c2cc(OC)cc(OC)c2)n1 as the compound, how does the activation read?
Its activation is inconclusive: 34.4%.

How did the activation turn out when Cc1ccc(SCC(=O)Nc2ccc(S(N)(=O)=O)cc2)cc1 was run?
The activation was inconclusive: 53.9%.

How did the activation turn out when Cc1ccc(-c2cc(=O)c3cc(C)ccc3[nH]2)cc1 was run?
Its activation is inconclusive: 58.4%.

For CCOc1cccc(C(=O)NC(=S)Nc2ccc3c(c2)OCCO3)c1, which activation is on record?
The activation was inactive: 8.34%.

For COc1ccc(-c2nnc3sc(COc4ccccc4)nn23)cc1, which activation is on record?
The activation was inconclusive: 51.5%.

How did the activation turn out when COc1ccc(CNC(=O)CSc2nc3ccc(C)cc3[nH]2)cc1OC was run?
The activation was inconclusive: 49.4%.

How did the activation turn out when CCOc1ccccc1/C=N/NC(=O)c1c(C)nc2ccc(Br)cn12 was run?
The activation was inactive: 2.31%.

With CCN(Cc1ccccc1)c1ccc(N=Nc2nn(C)c(C)c2[N+](=O)[O-])cc1 as the compound, how does the activation read?
The activation was inactive: 0.899%.

For C=CCn1c(C)nc2c(cnn2-c2ccccc2)c1=O, which activation is on record?
Its activation is inactive: 0.369%.

With O=C(NCc1ccccc1C(F)(F)F)C1CC(c2cccc(F)c2)=NO1 (stereo not drawn) as the compound, how does the activation read?
Its activation is inactive: 24.7%.

For CCC(=O)Nc1ccc(-c2csc(C)n2)cc1, which activation is on record?
The activation was inactive: -0.219%.

O=C(Nc1ccc(N2CCN(C(=O)c3ccc(Cl)cc3)CC2)cc1)c1cc2ccccc2o1 was tested. Which activation did it give?
The activation was inconclusive: 30.6%.

Which activation does the source give for O=C(NCCc1cccc(Cl)c1)c1ccc2c(c1)OCO2 here?
The activation was inconclusive: 69.5%.

Cc1ccccc1NC(=S)NN1CCN(C)CC1 was tested. Which activation did it give?
Its activation is inactive: -1.54%.

For O=C(NC(=S)Nc1ccc(N2CCOCC2)cc1)c1cccs1, which activation is on record?
The activation was inactive: 7.04%.

With Cc1cccnc1NC(=O)CNC(=O)C12CC3CC(CC(C3)C1)C2 as the compound, how does the activation read?
Its activation is inactive: 3%.

For CCN(CC)S(=O)(=O)c1cc(NC(=O)C(C)N2CCc3ccccc32)ccc1C (stereo not drawn), which activation is on record?
Its activation is inconclusive: 37.1%.

COc1ccc2c(Cl)c(C(=O)N/N=C/c3ccncc3)sc2c1 was tested. Which activation did it give?
Its activation is inconclusive: 56.3%.

For O=C(N/N=C/c1cccs1)c1ccc2c(c1)OCO2, which activation is on record?
Its activation is inconclusive: 62.1%.

For COc1ccc2[nH]c3c(N4CC(C)OC(C)C4)ncnc3c2c1 (stereo not drawn), which activation is on record?
Its activation is inactive: 18.7%.

How did the activation turn out when CCOc1ccc(C(C)NC(=O)Nc2ccc(F)cc2F)cc1 (stereo not drawn) was run?
Its activation is inconclusive: 68%.

Which activation does the source give for CCCN(CCC)Cc1cc(=O)oc2cc3c(cc12)CCC3 here?
The activation was inconclusive: 48%.

Which activation does the source give for CCOC(=O)c1c(C)oc2c1c(C(c1cccnc1)N1CCCCC1)c(O)c1ccccc12 (stereo not drawn) here?
The activation was inconclusive: 46.3%.

Which activation does the source give for CN1C(C(=O)NCc2cccs2)=CC(c2ccc(F)cc2)=NS1(=O)=O here?
Its activation is inconclusive: 76%.
